Laboratory results: the supplement of paper PMC12819154, “High-throughput peptide-centric local stability assay extends protein–ligand identification to membrane proteins, tissues and bacteria” (Nature Structural & Molecular Biology, 2025)
Some of the results follow. Most values lie at the level of the controls, where differences are scatter.

By UniProt entry, the sequences of proteins in these tests, tags left out. Where a name states a change or a piece, a line headed by the entry shows the natural chain unless it says otherwise.
UniProt Q9Y4U1: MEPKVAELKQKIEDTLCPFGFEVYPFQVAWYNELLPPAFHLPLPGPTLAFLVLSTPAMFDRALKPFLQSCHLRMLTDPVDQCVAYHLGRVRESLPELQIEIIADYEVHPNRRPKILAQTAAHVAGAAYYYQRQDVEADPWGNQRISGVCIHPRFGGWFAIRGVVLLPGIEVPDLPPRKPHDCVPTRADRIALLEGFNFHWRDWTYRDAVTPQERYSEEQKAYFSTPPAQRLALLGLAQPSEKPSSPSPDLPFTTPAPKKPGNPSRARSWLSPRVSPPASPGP
UniProt Q9Y2X0: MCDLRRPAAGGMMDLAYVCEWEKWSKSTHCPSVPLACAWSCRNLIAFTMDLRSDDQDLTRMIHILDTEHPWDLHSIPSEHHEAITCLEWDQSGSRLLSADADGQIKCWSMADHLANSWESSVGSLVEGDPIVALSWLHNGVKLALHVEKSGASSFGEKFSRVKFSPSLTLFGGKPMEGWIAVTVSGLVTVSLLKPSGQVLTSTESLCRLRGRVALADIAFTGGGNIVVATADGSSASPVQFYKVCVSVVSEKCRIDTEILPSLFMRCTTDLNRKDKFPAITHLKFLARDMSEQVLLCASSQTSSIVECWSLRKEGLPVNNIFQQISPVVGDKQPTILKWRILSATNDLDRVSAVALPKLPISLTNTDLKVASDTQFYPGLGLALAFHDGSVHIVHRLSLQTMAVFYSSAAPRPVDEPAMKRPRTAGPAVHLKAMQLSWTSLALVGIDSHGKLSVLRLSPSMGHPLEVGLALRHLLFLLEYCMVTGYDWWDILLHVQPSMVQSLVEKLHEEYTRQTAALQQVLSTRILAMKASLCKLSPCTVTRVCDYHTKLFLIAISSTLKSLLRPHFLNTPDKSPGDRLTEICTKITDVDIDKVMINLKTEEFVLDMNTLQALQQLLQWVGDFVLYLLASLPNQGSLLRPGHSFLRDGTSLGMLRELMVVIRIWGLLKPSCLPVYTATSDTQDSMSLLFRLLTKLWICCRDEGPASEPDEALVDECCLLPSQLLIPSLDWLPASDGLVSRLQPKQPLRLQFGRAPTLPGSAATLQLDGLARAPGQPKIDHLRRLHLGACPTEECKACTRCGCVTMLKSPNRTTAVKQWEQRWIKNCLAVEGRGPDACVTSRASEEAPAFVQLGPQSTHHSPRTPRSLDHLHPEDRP
UniProt Q9Y6I3: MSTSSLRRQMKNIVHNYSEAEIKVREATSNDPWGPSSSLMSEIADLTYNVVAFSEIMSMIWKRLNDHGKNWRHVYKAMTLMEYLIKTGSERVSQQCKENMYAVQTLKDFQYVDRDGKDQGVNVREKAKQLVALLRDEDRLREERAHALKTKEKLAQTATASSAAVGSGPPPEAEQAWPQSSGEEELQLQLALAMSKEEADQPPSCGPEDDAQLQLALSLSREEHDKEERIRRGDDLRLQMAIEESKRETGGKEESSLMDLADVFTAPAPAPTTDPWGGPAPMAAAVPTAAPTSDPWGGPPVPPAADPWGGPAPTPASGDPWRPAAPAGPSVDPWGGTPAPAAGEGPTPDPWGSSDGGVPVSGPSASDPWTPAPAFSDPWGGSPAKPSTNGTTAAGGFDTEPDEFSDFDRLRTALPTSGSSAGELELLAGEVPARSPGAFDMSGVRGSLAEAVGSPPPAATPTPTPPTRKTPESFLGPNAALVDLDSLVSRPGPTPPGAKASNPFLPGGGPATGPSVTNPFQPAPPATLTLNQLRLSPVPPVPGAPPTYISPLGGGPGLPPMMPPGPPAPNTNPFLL
UniProt Q9Y2K5: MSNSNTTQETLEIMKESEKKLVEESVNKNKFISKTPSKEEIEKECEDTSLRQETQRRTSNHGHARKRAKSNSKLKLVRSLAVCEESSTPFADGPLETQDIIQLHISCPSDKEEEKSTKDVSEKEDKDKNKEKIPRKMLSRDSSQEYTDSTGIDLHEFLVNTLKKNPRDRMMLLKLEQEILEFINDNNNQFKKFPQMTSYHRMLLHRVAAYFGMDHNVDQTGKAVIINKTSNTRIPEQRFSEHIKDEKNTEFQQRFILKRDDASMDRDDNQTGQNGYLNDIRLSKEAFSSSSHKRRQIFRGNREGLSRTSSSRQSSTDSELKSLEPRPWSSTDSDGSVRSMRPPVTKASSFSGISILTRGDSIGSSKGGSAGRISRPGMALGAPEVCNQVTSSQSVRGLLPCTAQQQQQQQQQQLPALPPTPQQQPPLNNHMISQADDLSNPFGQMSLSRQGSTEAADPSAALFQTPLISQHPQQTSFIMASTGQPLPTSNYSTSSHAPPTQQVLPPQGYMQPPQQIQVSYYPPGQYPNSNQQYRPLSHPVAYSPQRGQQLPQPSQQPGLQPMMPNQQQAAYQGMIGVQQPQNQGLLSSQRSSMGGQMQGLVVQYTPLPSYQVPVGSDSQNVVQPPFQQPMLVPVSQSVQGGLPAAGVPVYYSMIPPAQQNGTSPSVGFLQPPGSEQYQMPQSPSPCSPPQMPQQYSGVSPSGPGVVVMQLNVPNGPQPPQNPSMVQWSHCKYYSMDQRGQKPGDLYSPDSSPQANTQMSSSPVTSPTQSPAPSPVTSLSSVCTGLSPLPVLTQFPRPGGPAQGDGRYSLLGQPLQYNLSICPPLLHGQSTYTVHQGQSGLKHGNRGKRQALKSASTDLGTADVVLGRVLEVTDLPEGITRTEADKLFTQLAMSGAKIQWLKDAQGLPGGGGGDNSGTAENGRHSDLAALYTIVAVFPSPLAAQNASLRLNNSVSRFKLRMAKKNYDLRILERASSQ
UniProt Q9Y2J0: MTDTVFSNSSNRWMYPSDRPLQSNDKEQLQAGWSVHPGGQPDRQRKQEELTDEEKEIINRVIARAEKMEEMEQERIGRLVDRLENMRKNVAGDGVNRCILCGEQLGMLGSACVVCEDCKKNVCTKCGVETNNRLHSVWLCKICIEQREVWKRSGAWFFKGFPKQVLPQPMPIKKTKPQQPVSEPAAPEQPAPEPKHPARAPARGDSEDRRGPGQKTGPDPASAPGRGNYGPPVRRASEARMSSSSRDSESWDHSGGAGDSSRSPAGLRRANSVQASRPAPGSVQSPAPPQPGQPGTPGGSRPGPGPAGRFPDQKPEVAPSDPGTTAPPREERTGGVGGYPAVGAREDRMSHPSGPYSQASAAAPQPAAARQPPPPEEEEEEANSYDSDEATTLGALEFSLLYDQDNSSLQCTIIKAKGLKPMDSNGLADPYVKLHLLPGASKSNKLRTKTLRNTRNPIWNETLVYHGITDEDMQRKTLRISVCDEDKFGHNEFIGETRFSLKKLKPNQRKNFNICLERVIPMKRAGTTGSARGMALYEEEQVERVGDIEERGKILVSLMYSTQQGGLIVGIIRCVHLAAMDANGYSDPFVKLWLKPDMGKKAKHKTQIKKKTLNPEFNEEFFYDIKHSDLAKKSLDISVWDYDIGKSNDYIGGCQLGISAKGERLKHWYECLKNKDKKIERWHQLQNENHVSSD
UniProt Q9Y5Z9: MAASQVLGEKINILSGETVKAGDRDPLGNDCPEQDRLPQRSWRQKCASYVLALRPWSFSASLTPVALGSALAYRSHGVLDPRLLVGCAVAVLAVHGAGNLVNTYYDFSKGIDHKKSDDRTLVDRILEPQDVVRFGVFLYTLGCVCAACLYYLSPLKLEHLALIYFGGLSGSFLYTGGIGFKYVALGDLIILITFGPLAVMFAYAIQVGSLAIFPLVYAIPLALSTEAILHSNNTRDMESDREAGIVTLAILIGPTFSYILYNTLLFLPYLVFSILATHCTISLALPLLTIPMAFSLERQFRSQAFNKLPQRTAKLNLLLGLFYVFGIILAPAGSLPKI
UniProt Q9Y4E5: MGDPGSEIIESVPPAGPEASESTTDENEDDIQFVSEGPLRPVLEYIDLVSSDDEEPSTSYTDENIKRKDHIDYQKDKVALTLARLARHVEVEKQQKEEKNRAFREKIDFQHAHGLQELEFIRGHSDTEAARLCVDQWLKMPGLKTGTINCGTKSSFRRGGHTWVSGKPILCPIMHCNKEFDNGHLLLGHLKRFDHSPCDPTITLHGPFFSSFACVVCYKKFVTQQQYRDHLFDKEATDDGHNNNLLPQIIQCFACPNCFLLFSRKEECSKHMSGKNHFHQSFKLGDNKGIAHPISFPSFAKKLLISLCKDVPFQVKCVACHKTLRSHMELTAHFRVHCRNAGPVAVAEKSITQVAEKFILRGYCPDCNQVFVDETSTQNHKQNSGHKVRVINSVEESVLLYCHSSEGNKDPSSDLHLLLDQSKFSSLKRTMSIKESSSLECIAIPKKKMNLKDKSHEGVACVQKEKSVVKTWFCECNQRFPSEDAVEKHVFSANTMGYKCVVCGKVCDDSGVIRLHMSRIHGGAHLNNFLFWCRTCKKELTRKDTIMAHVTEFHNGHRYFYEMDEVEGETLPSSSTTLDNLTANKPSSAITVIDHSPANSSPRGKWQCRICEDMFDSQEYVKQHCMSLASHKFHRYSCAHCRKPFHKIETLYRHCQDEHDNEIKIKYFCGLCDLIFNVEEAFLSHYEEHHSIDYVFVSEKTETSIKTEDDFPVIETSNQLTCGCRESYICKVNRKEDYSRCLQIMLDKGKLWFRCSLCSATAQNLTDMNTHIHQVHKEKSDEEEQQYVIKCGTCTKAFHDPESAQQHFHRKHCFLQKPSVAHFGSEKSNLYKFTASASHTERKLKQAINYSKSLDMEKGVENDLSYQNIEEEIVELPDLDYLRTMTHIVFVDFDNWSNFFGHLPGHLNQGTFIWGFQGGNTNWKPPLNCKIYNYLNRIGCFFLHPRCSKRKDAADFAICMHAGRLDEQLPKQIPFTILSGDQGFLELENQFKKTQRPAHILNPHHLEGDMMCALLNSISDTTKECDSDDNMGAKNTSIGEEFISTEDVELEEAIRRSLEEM
UniProt Q9Y606: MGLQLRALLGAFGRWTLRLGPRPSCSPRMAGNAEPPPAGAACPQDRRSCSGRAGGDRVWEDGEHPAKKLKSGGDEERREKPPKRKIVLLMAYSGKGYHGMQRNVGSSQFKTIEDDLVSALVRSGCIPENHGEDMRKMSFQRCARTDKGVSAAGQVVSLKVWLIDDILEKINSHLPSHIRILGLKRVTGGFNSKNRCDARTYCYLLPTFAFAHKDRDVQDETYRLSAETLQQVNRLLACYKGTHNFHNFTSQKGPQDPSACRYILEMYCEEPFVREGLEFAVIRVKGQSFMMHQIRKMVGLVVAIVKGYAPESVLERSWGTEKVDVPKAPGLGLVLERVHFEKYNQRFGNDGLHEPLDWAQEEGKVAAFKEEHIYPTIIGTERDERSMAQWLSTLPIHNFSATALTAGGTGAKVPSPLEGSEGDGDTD
UniProt Q9Y3A0: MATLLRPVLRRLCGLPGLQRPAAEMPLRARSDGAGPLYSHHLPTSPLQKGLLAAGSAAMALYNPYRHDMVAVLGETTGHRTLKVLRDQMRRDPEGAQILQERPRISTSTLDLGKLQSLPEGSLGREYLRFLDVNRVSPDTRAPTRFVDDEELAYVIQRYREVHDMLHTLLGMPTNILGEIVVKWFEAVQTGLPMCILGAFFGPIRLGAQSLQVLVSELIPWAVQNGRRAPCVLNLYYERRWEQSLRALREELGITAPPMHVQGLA

The targets below were run with Cc1nc(Nc2ncc(C(=O)Nc3c(C)cccc3Cl)s2)cc(N2CCN(CCO)CC2)n1 [dasatinib] (assay: log2 fold change of tryptic peptide abundance, ligand vs vehicle (limited proteolysis) (log2 ratio); higher = more trypsin-susceptible (destabilized)). Settings: ligand concentration: 5 uM; sample: K562 cleared lysate.

Target | log2 fold change
MMACHC (peptide sequence: DAVTPQER, peptide start residue: 207) (UniProt Q9Y4U1) | 0.138
MED16 (peptide sequence: LHLGACPTEECKACTR, peptide start residue: 785) (UniProt Q9Y2X0) | -0.678
EPN1 (peptide sequence: ENMYAVQTLK, peptide start residue: 98) (UniProt Q9Y6I3) | -0.111
UniProt Q9Y2K5 (peptide sequence: ASSFSGISILTR, peptide start residue: 347) | -0.336
NCOR2 (peptide sequence: PLVPPVSGHATIAR, peptide start residue: 1980) (UniProt Q9Y618) | -0.696
UniProt Q9Y2J0 (peptide sequence: KTKPQQPVSEPAAPEQPAPEPK, peptide start residue: 174) | 0.0377
UBIAD1 (peptide sequence: INILSGETVK, peptide start residue: 11) (UniProt Q9Y5Z9) | -0.0121
ZNF451 (peptide sequence: AFHDPESAQQHFHR, peptide start residue: 797) (UniProt Q9Y4E5) | -0.777
PUS1 (peptide sequence: VAAFKEEHIYPTIIGTERDER, peptide start residue: 365) (UniProt Q9Y606) | 0.0791
COQ4 (peptide sequence: LQSLPEGSLGR, peptide start residue: 115) (UniProt Q9Y3A0) | -0.265
